Data published in PMC8373142.
Positions count from the first letter of the chain named. Numbers in names are those of the source. Results are given in words; binding and its absence hold for the method and conditions named. Binding seen in cells or lysates may run through a third protein. Some entries that bind do so weakly or less than the wild type. Where a sequence is shown, tags or fusion partners need not be part of it.

T1: Tpk1, chromosomal TAP-fusion (S. cerevisiae) (UniProt P06244)
T1 sequence: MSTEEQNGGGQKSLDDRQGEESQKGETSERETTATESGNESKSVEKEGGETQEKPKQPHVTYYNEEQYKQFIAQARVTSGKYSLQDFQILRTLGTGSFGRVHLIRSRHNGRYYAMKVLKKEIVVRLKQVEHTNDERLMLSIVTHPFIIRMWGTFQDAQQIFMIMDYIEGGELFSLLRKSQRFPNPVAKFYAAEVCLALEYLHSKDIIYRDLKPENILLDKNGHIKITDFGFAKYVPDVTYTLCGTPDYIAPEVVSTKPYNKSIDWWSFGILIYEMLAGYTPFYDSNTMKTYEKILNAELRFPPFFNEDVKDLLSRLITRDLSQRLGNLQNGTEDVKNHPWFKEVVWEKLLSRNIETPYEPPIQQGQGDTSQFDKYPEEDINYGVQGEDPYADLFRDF

B1: HA-tagged Nej1 S298E (protein, UniProt Q06148 1-342)
chain: MDSELKGQQLSDAEWCVKKINGEGNCLLLFLPMSSPTTIVMIVLVSLERLVPYVFKLSQTQLSQQCQSQGFTDSISLNLIKLKLMDILQAPQEINQIGLVDSNLVFSFDVSADITVSINSVPSHVTKDMFYMILQSLCMLLLKLVNLSTQYHYVQRDILNEKQKCLDFLLISLRDLDGGSKVISQWAPENSKNYESLQQCTDDDIIKKLLHKGKFQHQEFLADSLKTLLSLRNKFQDVSRFEESGELNKKERVRFPAVNHFYNDDFELQADPTNEARPNSRGKIKPKTDFKPKSRESETSSQLRLENFSESEATPEKTKSSSSLVEEYPQKKRKFGKVRIKN
B2: HA-tagged Nej1 S298A (protein, UniProt Q06148 1-342)
chain: B1 chain with E298A
B3: HA-tagged Dun1 (enzyme, UniProt P39009 1-513)
chain: MSLSTKREHSGDVTDSSFKRQQRSNKPSSEYTCLGHLVNLIPGKEQKVEITNRNVTTIGRSRSCDVILSEPDISTFHAEFHLLQMDVDNFQRNLINVIDKSRNGTFINGNRLVKKDYILKNGDRIVFGKSCSFLFKYASSSSTDIENDDEKVSSESRSYKNDDEVFKKPQISATSSQNATTSAAIRKLNKTRPVSFFDKYLLGKELGAGHYALVKEAKNKKTGQQVAVKIFHAQQNDDQKKNKQFREETNILMRVQHPNIVNLLDSFVEPISKSQIQKYLVLEKIDDGELFERIVRKTCLRQDESKALFKQLLTGLKYLHEQNIIHRDIKPENILLNITRRENPSQVQLGPWDEDEIDIQVKIADFGLAKFTGEMQFTNTLCGTPSYVAPEVLTKKGYTSKVDLWSAGVILYVCLCGFPPFSDQLGPPSLKEQILQAKYAFYSPYWDKIDDSVLHLISNLLVLNPDERYNIDEALNHPWFNDIQQQSSVSLELQRLQITDNKIPKTYSELSCL

molecular target: T1, Tpk1, chromosomal TAP-fusion (S. cerevisiae); assay: co-IP; chromosomal TAP-fusion of Tpk1 precipitated with calmodulin beads from yeast extracts with exogenous HA-tagged Nej1 (wild-type, S298A, S298E) or Dun1; blot anti-HA; no detergent in the buffer, gentle disruption with glass beads; cells treated with or without bleomycin

binding, binds:
B1, B2, B3
